Measurements published in article PMC10592355.

Columns and labels:
TyrRS-V5 (Homo sapiens) [1] = molecular target: T1, TyrRS-V5 (Homo sapiens) (UniProt P54577); assay: competition with a labelled probe; details: cold N1 competes with hot N1, nuclear extract; protein in an extract; protein details: V5
T1 sequence (looked up, limits assumed): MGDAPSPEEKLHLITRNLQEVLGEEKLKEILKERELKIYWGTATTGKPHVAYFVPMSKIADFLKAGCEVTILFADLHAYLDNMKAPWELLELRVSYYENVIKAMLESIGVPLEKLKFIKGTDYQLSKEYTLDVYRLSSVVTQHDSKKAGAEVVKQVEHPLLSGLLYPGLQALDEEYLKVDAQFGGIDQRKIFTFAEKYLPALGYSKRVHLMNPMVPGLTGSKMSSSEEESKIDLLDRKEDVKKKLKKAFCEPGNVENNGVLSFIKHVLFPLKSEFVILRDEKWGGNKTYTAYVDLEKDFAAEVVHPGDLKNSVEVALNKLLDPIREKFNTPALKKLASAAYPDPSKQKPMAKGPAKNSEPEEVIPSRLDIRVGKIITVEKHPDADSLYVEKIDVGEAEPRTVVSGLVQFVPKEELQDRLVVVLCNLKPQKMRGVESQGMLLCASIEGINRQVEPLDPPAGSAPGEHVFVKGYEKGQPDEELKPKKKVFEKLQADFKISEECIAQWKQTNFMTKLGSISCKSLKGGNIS

[2] = molecular target: T2, mini-TyrRS-V5 (Homo sapiens) (UniProt P54577); assay: EMSA; details: nuclear extract; protein in an extract; protein details: V5
T2 sequence (looked up, limits assumed): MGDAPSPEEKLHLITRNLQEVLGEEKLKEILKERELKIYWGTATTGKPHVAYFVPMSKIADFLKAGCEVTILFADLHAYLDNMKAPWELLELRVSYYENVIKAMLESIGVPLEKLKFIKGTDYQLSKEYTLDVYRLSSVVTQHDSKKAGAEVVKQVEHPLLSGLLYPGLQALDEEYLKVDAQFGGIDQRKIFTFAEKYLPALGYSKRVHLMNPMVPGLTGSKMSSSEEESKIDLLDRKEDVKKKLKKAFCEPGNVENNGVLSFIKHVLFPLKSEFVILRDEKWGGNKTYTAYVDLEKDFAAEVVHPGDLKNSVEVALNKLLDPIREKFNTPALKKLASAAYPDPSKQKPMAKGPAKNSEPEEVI

[3] = molecular target: T3, TyrRS purified from mammalian cells (Homo sapiens) (UniProt P54577); assay: EMSA; details: recombinant protein
T3 sequence (looked up, limits assumed): T1 sequence (looked up, limits assumed)

CTD-V5 (Homo sapiens) = molecular target: T4, CTD-V5 (Homo sapiens) (UniProt P54577); assay: EMSA; details: nuclear extract; protein in an extract; protein details: V5
T4 sequence (looked up, limits assumed): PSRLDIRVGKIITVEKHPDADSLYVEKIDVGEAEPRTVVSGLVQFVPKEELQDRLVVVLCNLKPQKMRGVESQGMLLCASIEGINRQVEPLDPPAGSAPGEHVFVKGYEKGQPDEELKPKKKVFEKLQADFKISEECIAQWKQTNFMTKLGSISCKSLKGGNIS

TyrRS-V5 (Homo sapiens) [4] = molecular target: T1, TyrRS-V5 (Homo sapiens); assay: EMSA supershift; details: anti-V5 supershift, nuclear extract; protein in an extract; protein details: V5
TyrRS-V5 (Homo sapiens) [5] = molecular target: T1, TyrRS-V5 (Homo sapiens); assay: EMSA; details: nuclear extract; protein in an extract; protein details: V5

Does “ACTCTCTGCTGCTCCTCACTTTTTCCGG (double strand) [28 bp DNA (WT), CTCCTC motif]” bind (TyrRS-V5 (Homo sapiens) [1])?
Result: binds

Does “ACTCTCTGCTGCTCCTCACTTTTTCCGG (double strand) [28 bp DNA (WT), CTCCTC motif]” bind [2]?
Result: no binding

Does “ACTCTCTGCTGCTCCTCACTTTTTCCGG (double strand) [28 bp DNA (WT), CTCCTC motif]” bind [3]?
Result: binds

Does “ACTCTCTGCTGCTCCTCACTTTTTCCGG (double strand) [28 bp DNA (WT), CTCCTC motif]” bind (CTD-V5 (Homo sapiens))?
Result: no binding

Does “ACTCTCTGCTGCTCCTCACTTTTTCCGG (double strand) [28 bp DNA (WT), CTCCTC motif]” bind (TyrRS-V5 (Homo sapiens) [4])?
Result: binds

Does “ACTCTCTGCTGCTTTTCACTTTTTCCGG (double strand) [28 bp DNA (Mut), CTTTTC]” bind [3]?
Result: no binding

Does “ACTCTCTGCTGCTTTTCACTTTTTCCGG (double strand) [28 bp DNA (Mut), CTTTTC]” bind (TyrRS-V5 (Homo sapiens) [5])?
Result: no binding

The exact form of at least one protein or probe is not confirmed. For some of these results: Negatives hold for the conditions tested. Protein sequences can lack the tags named with them. For some of these results: Results from cells or extracts need not show a direct contact.
